According to article PMC7819943, “Rice protein-binding microarrays: a tool to detect cis-acting elements near promoter regions in rice”:
This is one part of the list.

molecular target: T1, OsSMF1 (Oryza sativa, UniProt Q6ZLB0 1-436); experiment: protein-binding microarray (RPBM); PBS, 2% BSA, 51.3 ng/ul salmon testes DNA, 50 uM zinc acetate, 200 nM TF, 25 C, 1 h; high values mean tight binding; details: protein: recombinant; tags: N-terminal polyhistidine and DsRed monomer fusion (pET32a); chain copies: 2; label: CyDye5-dUTP incorporated in the synthesized complementary strand; 3' TTTTT single-stranded linker to array surface; dsDNA, one strand shown
T1 sequence: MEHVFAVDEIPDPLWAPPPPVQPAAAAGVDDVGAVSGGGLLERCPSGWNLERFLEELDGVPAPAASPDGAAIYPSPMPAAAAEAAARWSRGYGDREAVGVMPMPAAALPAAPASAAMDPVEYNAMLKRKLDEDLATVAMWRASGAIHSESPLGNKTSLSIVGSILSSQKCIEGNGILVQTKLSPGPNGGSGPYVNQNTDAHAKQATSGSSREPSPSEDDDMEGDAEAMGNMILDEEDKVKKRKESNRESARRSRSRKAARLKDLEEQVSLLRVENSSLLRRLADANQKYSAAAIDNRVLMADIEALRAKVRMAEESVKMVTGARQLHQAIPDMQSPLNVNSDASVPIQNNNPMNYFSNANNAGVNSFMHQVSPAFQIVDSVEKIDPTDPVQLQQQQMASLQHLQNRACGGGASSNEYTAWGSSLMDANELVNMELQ
In short: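 Binding signal here means per-feature fluorescence intensity in arbitrary units. The values were read on an Axon 4000B scanner after a custom Agilent array, double-stranded by primer extension with Cy5-dUTP, was incubated with 200 nM protein at 25 °C for 1 h in PBS with 2% BSA, salmon testes DNA and 50 µM zinc acetate, then washed. The proteins were transcription factors with an N-terminal polyhistidine tag and DsRed, expressed in E. coli BL21-CodonPlus and purified on Ni–NTA.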

Sequence	binding signal
GCTCCCGCACCGCATCCGCCAACGAGGAGGCCGGGACTGTCGGAGTCACCTAGTGCAG	3150 fluorescence intensity (a.u.)
AGCTGGGATGGTGACGAGGATTGATTCCCATCGGTGATCCCGGAGTCACCTAGTGCAG	5890 fluorescence intensity (a.u.)
CTTGAGCCTAATTGCTCCATGATTTGACATGTTGTGCTATCGGAGTCACCTAGTGCAG	3470 fluorescence intensity (a.u.)
TCCTTGACAGTTCTTGCATTGTATGTGTCAGCTCATGTGTCGGAGTCACCTAGTGCAG	3900 fluorescence intensity (a.u.)
GGAGTAAGCCAATTGGACGATCCGTGACGCATCGATCGGTCGGAGTCACCTAGTGCAG	4690 fluorescence intensity (a.u.)
TCGACCTGCCAACATCAACATGCAATCGGCCTCCTGTCCTCGGAGTCACCTAGTGCAG	3890 fluorescence intensity (a.u.)
AGAAATTTGCATTCTAAGGTACAAGTCAGCAATCAGCCCACGGAGTCACCTAGTGCAG	4460 fluorescence intensity (a.u.)
AGGTGCGGGGCGTCCGGCCGCCACGTGGCGGGCGAACCCACGGAGTCACCTAGTGCAG	4730 fluorescence intensity (a.u.)
ACCAATCCTACCACCACGTAGTACACACACACTACACACACGGAGTCACCTAGTGCAG	4720 fluorescence intensity (a.u.)
AACGCCACCATCTTCCTCAGCCGTAGCCCGTAGGTCGACGCGGAGTCACCTAGTGCAG	22600 fluorescence intensity (a.u.)
CCAAGCCACCACGCCACCCAAACCGCGATTTCTGATCGATCGGAGTCACCTAGTGCAG	3250 fluorescence intensity (a.u.)
GCCACCATCGTCATCCATTCCCTCATCAGTGAGAGAGCTACGGAGTCACCTAGTGCAG	3710 fluorescence intensity (a.u.)
TAATCCTTATGTAGGATCGGGATCCTACGTAAGCTCTACCCGGAGTCACCTAGTGCAG	6660 fluorescence intensity (a.u.)
ACGGATTGGCCTTGTGCCGTGCTGCTACAGTACGTGTGATCGGAGTCACCTAGTGCAG	3360 fluorescence intensity (a.u.)
TGGGTGTGACACATCTTAATACATGAATCTGAATATACATCGGAGTCACCTAGTGCAG	3650 fluorescence intensity (a.u.)
CGCGGAGCAGCGGATGACGACGTGGACTCAGCTGTCGTGCCGGAGTCACCTAGTGCAG	7230 fluorescence intensity (a.u.)
GAGAGAGAGAAAGAGGGGAAGGGGAGATATGACAGGTGGGCGGAGTCACCTAGTGCAG	3520 fluorescence intensity (a.u.)
ACTAGACTCGTGTTATCGTTGCCACATGACCAAGCCCCACCGGAGTCACCTAGTGCAG	4200 fluorescence intensity (a.u.)
TGAAATGAGGCTGATGTCATGATTAATTAGTCCGCATATTCGGAGTCACCTAGTGCAG	7840 fluorescence intensity (a.u.)
CTGATCCTCGCTGACACCTCGGTCAGCATGGCAGGAGAGTCGGAGTCACCTAGTGCAG	4020 fluorescence intensity (a.u.)
AGCGCCGTATAAACACCCCTCGGTTCGCGTTTTGGTCGCGCGGAGTCACCTAGTGCAG	3280 fluorescence intensity (a.u.)

Sequence	binding signal
CGCCATGGGCGACATCGACATCTACAGCCTCTACACTCCGCGGAGTCACCTAGTGCAG	44200 fluorescence intensity (a.u.)
AATTGTGTAGTATGTGACTATTGTATGAATGAGCTATTAGCGGAGTCACCTAGTGCAG	27600 fluorescence intensity (a.u.)
GGCCTGCAAACTGCTTACGCCTACCAGTTTGTACCCGATCCGGAGTCACCTAGTGCAG	3720 fluorescence intensity (a.u.)
TTACAGCCACAATGTTCTAGCTCTACCCACACAACTTCTGCGGAGTCACCTAGTGCAG	5120 fluorescence intensity (a.u.)
TGCTTTTGGGAGGCGTGTGGCGTTGTGGTGGTGGTGGTGGCGGAGTCACCTAGTGCAG	3150 fluorescence intensity (a.u.)
AGATGCCACATCATCGTCCACTAAGAAGATATCACATCATCGGAGTCACCTAGTGCAG	11600 fluorescence intensity (a.u.)
GATGGATAGAGAGAGAGAGAGAGAGAGATTGACACGTGAGCGGAGTCACCTAGTGCAG	6550 fluorescence intensity (a.u.)
TAAGGCGGGGCGGGCTCGCGCCATCGACCGCACACCGGTGCGGAGTCACCTAGTGCAG	3230 fluorescence intensity (a.u.)
CATGCAATGGTCGTCACGGCAGCTTGACGTGGGCCCACCACGGAGTCACCTAGTGCAG	5880 fluorescence intensity (a.u.)
ACACACGCCTGCATGCGCTTTGGTGCACCATCACGCACAGCGGAGTCACCTAGTGCAG	3310 fluorescence intensity (a.u.)
CTATAAAAGGGAGCACCACCTCCCACGCGCGCCGCAGCGGCGGAGTCACCTAGTGCAG	3970 fluorescence intensity (a.u.)
CGAGAGGAGAGGAGACGGGTGACGCATGCAACGGCCGGCCCGGAGTCACCTAGTGCAG	7900 fluorescence intensity (a.u.)
CCTCCTAATAACGTGCTAATTACGACACGTGTTAACCATACGGAGTCACCTAGTGCAG	7650 fluorescence intensity (a.u.)
CAGAAACCAACCAACACAAGACACCGACCGACGCCGACCACGGAGTCACCTAGTGCAG	8450 fluorescence intensity (a.u.)
TTCATCATGTCATGAGGTGGCATTCTAGTGATTATTGCGACGGAGTCACCTAGTGCAG	8320 fluorescence intensity (a.u.)
CATTCCATTCATGACGCCATTAATTTAGCTATTTGAGTCACGGAGTCACCTAGTGCAG	3870 fluorescence intensity (a.u.)
TAACCCAGTGCAAATTAAAGTGCAGCAAGGAAGATGCAACCGGAGTCACCTAGTGCAG	17900 fluorescence intensity (a.u.)
CGGCTTGGTGACCCTACTGCGCCGCCAAGTCACCCGCTCGCGGAGTCACCTAGTGCAG	5330 fluorescence intensity (a.u.)
ATGTCCCGCACACCACCCCTCGGCCGCGTCGGCAGCGACCCGGAGTCACCTAGTGCAG	4280 fluorescence intensity (a.u.)
TACATATATATATACATATATATATATATATACATATATACGGAGTCACCTAGTGCAG	30400 fluorescence intensity (a.u.)
TGTGTGCTGTGCTGTGCAGTGGCGATGACTGCTTTGCTGCCGGAGTCACCTAGTGCAG	3770 fluorescence intensity (a.u.)

Given in markdown: entries from further up

| Sequence | binding signal |
| --- | --- |
| CGCCATGGGCGACATCGACATCTACAGCCTCTACACTCCGCGGAGTCACCTAGTGCAG | 44200 fluorescence intensity (a.u.) |
| AATTGTGTAGTATGTGACTATTGTATGAATGAGCTATTAGCGGAGTCACCTAGTGCAG | 27600 fluorescence intensity (a.u.) |
| TTACAGCCACAATGTTCTAGCTCTACCCACACAACTTCTGCGGAGTCACCTAGTGCAG | 5120 fluorescence intensity (a.u.) |
| AGATGCCACATCATCGTCCACTAAGAAGATATCACATCATCGGAGTCACCTAGTGCAG | 11600 fluorescence intensity (a.u.) |
| GATGGATAGAGAGAGAGAGAGAGAGAGATTGACACGTGAGCGGAGTCACCTAGTGCAG | 6550 fluorescence intensity (a.u.) |
| TAAGGCGGGGCGGGCTCGCGCCATCGACCGCACACCGGTGCGGAGTCACCTAGTGCAG | 3230 fluorescence intensity (a.u.) |
| ACACACGCCTGCATGCGCTTTGGTGCACCATCACGCACAGCGGAGTCACCTAGTGCAG | 3310 fluorescence intensity (a.u.) |
| CCTCCTAATAACGTGCTAATTACGACACGTGTTAACCATACGGAGTCACCTAGTGCAG | 7650 fluorescence intensity (a.u.) |
| CAGAAACCAACCAACACAAGACACCGACCGACGCCGACCACGGAGTCACCTAGTGCAG | 8450 fluorescence intensity (a.u.) |
| TTCATCATGTCATGAGGTGGCATTCTAGTGATTATTGCGACGGAGTCACCTAGTGCAG | 8320 fluorescence intensity (a.u.) |
| CATTCCATTCATGACGCCATTAATTTAGCTATTTGAGTCACGGAGTCACCTAGTGCAG | 3870 fluorescence intensity (a.u.) |
| ATGTCCCGCACACCACCCCTCGGCCGCGTCGGCAGCGACCCGGAGTCACCTAGTGCAG | 4280 fluorescence intensity (a.u.) |
